Here are results for 5 substances from publication doi:10.1101/2020.11.23.391516.

Assay [1] concerns the target T1, SOBIR1-GFP (Arabidopsis thaliana) (UniProt Q9SKB2).
T1 sequence: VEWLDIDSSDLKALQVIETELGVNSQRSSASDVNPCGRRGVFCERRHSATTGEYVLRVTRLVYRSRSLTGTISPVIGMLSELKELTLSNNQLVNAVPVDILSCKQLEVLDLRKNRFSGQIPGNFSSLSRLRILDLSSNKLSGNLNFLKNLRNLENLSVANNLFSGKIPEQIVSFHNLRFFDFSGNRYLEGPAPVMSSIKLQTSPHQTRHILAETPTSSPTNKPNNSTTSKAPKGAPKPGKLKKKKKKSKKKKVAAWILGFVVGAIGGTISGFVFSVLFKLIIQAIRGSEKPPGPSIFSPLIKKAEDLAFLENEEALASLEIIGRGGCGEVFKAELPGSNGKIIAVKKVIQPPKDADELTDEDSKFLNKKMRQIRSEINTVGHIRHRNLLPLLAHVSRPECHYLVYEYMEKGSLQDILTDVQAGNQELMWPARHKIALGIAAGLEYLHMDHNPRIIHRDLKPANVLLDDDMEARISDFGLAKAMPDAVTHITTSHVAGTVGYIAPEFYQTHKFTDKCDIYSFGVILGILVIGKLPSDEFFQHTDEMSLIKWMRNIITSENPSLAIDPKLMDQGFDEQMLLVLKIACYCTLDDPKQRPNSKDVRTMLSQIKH
As to the kind of experiment: co-IP.

Assay [2] addresses T2, SOBIR1 (rBiFC fusion) (Arabidopsis thaliana) (UniProt Q9SKB2).
T2 sequence: T1 sequence
As to the kind of experiment: split reporter.

The target in assay [3] is T1, SOBIR1-GFP (Arabidopsis thaliana). As to the kind of experiment: co-IP. This is another data set of the same source.

Where two headings read alike, the source gives them in different places. These are yes or no findings as the source states them, for the method shown. Binding seen in cells or lysates may run through a third protein. A result given as binding can be weak or reduced; the word gives no strength. Tags and fused reporters may be left off the sequences shown.

With PBL31-HA (from UniProt F4I2C7), in assay [1], the binding entry was “binds”.
Still for that read-out and setting: as for ADR1-L2-HA (Arabidopsis thaliana), the entry is “binds”.
With “ADR1-L2 (rBiFC fusion) (Arabidopsis thaliana)”, in assay [2], the binding entry is “binds”.
Turning to ADR1-L1-HA (Arabidopsis thaliana), the binding result in assay [3] and in assay [1] was “binds” throughout.
Regarding “ADR1-L1 (rBiFC fusion) (Arabidopsis thaliana)”, the binding entry in assay [2] is recorded as “binds”.
